No constants are given. Whether binding was seen depends on the method and setting. For some assays here: Binding seen in cells or lysates may run through a third protein. Some binding calls cover weakened binding; strength is not graded here.
How the values were obtained:
[1] = biological target: T1, DYNLRB2, yeast two-hybrid bait (in pGBKT7) (mouse) (UniProt Q9DAJ5); assay: two-hybrid; baits in pGBKT7 and prey in pGADT7 co-transformed into yeast strain AH109; selection on SD-tryptophan-leucine-histidine-adenine plates
T1 sequence: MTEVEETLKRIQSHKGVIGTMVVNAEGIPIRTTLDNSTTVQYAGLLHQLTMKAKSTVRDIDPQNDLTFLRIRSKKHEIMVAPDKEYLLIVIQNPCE

The chains behind the UniProt entries cited, without tags or fusion partners.
UniProt O88485: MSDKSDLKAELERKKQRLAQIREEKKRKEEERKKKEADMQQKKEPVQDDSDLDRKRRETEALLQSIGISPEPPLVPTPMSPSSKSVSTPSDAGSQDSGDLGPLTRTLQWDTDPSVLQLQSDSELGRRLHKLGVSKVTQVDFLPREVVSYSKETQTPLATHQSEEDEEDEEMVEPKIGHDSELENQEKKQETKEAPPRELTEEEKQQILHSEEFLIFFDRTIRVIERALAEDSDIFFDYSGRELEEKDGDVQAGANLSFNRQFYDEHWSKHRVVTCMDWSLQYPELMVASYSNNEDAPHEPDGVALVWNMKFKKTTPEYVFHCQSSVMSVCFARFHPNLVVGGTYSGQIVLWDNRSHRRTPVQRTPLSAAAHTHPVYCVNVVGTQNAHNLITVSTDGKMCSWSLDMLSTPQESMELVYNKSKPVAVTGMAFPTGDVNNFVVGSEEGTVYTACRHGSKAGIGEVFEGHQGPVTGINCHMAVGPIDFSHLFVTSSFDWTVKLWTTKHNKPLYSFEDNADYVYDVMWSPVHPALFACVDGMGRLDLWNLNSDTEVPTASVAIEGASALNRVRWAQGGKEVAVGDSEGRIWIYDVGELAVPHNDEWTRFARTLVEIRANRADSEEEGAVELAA
UniProt Q14204: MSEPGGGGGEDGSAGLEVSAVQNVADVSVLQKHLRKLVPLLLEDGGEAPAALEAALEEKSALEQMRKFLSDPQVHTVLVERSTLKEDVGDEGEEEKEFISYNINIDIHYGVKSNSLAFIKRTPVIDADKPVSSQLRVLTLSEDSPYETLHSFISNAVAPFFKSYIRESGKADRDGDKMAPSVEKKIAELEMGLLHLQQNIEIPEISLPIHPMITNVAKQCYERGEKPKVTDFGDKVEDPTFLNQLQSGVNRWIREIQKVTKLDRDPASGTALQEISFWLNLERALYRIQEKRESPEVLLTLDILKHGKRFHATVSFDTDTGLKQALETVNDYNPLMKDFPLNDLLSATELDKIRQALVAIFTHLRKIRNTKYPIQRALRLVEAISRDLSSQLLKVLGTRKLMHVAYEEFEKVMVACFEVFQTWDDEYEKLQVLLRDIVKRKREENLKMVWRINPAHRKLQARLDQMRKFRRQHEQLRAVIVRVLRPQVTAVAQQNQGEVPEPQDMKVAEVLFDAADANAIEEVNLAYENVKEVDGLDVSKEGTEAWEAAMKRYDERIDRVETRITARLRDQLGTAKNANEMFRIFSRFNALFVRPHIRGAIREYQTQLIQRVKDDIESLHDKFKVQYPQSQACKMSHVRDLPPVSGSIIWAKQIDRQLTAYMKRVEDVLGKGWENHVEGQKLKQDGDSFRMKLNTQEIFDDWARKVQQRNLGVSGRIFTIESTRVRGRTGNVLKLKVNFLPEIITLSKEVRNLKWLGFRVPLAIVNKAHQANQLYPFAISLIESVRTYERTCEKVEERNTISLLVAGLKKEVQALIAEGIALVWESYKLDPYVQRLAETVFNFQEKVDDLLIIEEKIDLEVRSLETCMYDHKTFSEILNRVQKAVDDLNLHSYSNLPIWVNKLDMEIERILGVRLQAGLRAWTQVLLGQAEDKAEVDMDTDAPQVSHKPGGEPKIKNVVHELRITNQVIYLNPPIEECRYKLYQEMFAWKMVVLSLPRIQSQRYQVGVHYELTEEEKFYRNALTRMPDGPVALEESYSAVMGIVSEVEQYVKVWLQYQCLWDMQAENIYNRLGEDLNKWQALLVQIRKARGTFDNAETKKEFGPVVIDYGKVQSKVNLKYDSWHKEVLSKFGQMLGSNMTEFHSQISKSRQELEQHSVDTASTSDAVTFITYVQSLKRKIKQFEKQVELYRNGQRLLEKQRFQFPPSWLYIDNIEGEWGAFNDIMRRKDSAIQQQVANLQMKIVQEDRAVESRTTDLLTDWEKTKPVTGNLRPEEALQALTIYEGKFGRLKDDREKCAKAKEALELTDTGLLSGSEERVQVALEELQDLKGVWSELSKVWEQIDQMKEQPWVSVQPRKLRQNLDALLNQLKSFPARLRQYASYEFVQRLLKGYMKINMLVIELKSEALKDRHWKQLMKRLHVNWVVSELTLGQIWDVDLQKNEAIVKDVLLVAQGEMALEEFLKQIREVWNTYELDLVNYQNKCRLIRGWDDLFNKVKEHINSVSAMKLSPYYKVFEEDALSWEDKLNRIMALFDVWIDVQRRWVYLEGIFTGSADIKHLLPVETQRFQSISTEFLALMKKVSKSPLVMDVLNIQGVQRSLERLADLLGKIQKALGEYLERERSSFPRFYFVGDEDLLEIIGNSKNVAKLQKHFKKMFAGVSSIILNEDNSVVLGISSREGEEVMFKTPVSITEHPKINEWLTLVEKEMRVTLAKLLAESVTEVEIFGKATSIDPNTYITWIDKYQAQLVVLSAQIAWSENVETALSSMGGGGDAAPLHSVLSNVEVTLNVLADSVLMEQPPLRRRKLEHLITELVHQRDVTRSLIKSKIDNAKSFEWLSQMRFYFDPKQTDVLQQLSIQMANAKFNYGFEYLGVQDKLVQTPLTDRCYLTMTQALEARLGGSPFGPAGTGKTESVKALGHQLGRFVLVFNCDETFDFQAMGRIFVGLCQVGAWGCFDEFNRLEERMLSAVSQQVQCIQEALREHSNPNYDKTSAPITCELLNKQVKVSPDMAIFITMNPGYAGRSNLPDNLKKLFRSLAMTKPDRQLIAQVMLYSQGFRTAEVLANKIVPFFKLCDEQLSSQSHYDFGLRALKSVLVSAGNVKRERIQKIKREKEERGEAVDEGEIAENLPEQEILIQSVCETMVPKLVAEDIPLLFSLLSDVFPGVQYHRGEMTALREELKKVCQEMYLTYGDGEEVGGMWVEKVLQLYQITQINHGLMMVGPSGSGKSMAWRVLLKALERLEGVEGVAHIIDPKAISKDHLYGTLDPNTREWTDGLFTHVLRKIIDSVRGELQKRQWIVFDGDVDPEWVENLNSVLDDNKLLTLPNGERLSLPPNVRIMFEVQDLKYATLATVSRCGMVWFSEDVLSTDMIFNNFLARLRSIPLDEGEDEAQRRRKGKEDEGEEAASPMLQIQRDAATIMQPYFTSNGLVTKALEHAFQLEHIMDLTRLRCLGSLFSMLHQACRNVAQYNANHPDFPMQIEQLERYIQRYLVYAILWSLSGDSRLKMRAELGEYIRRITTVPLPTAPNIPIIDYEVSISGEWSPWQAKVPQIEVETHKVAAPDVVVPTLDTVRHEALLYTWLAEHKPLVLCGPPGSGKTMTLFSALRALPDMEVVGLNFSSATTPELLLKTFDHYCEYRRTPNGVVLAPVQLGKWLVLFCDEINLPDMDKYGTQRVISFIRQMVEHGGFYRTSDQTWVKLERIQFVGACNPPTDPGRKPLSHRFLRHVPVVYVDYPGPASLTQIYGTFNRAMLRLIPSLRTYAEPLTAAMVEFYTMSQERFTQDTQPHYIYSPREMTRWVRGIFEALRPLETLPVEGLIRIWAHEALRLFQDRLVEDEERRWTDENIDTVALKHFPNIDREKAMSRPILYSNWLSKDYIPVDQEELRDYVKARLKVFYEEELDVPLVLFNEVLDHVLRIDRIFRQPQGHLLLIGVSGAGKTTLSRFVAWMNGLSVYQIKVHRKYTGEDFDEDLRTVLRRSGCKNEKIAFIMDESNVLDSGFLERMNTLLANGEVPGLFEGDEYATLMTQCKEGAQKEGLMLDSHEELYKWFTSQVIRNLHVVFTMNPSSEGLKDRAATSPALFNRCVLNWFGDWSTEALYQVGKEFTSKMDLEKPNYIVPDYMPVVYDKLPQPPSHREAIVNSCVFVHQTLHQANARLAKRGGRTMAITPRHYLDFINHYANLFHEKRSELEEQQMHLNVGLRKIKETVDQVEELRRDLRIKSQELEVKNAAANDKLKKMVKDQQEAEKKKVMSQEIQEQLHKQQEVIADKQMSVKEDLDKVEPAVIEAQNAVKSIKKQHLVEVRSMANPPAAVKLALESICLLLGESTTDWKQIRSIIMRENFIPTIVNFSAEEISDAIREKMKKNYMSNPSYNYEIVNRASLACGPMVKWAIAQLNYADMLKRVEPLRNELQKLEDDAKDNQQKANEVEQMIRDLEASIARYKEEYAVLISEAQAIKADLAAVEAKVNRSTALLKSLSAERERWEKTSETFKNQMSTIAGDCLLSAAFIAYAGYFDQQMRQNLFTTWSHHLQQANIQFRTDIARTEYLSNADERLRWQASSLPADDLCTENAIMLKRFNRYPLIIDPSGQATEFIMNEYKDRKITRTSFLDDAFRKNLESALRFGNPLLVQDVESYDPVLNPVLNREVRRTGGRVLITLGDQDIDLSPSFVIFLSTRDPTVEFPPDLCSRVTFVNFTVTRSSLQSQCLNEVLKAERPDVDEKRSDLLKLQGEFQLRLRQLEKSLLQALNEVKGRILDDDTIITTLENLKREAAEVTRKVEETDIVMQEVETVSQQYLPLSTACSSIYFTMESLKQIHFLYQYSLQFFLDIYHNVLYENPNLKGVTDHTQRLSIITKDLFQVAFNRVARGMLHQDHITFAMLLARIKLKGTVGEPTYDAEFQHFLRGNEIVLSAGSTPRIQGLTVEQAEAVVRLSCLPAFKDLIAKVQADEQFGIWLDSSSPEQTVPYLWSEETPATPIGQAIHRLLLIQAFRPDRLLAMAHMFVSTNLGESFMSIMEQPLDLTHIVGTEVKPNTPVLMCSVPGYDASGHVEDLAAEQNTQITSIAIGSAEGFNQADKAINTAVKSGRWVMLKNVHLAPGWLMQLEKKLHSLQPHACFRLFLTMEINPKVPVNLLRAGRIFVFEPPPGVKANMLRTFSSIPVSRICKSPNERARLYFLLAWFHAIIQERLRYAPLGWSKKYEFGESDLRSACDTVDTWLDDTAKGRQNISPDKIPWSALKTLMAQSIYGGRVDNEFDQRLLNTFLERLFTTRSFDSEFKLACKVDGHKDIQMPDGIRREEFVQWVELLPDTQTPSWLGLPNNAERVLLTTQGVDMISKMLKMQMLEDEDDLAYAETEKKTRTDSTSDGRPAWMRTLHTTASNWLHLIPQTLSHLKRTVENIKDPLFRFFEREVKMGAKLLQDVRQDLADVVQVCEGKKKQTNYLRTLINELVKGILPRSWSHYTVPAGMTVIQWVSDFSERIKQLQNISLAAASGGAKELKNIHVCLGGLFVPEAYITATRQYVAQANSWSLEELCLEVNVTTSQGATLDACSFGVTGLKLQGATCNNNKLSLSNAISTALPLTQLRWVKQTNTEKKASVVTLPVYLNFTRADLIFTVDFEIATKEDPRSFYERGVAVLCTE

[2] = biological target: FLAG-hDYNLRB2 (human) (UniProt Q8TF09); assay: co-IP; FLAG-IP (anti-FLAG M2 Affinity Gel, eluted with 3x FLAG peptide) from lysates of HeLa cells stably expressing GFP-labeled dynein HC and transfected with FLAG-hDYNLRB1 or FLAG-hDYNLRB2; GFP-dynein in the eluate seen by single-molecule imaging on microtubules

| binding [1] | binding [2] | Substance |
| --- | --- | --- |
| binds |  | DYNC1I1, yeast two-hybrid prey (in pGADT7) (from UniProt O88485 1-628) |
|  | binds | GFP-labeled dynein HC (from UniProt Q14204 1-4646) |
